Test results from PubChem BioAssay AID504467 (National Center for Advancing Translational Sciences (NCATS), 2011).
Screen size: about 330,000 compounds; about 7,700 (2.3%) were called active. The shares of active, inactive and inconclusive entries below differ from those in the screen. The call rests on the fitted dose curve; in most records, active means well fitted inhibition curve with a large enough effect; inconclusive means small, poorly fitted or top-dose-only effect, or effect the other way; inactive means flat fitted curve, though single readings scatter. A potency beside an inconclusive call is a rough fit, not a confirmed value.

Assay: qHTS screen for small molecules that inhibit ELG1-dependent DNA repair in human embryonic kidney (HEK293T) cells expressing luciferase-tagged ELG1; further: nearly all actives have a fitted effect of over 55% in size
Conditions: HEK293T ELG1-luciferase reporter, luminescence, 16 h, DNA damage induced by 5-fluorouridine; series mostly up to 46.1 µM
Procedure, shortened: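 5-Fluorouridine DNA damage + compound/DMSO, 2,000 cells/well, 16 h, 37 °C/5% CO2. ONE-Glo, 30 min RT, luminescence. Readout = decrease in reporter signal.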
Potency means the concentration at half of the fitted maximal effect.

Row | Structure (SMILES) | Potency
1 | O=C(CCC(=O)N1CCOc2ccc(Cl)cc21)NCCCN1CCN(Cc2ccccc2)CC1 | inactive
2 | COC(=O)c1cc2c(-c3ccccc3)c(C)c3ccccn3c-2c1C(=O)OC | inconclusive: 29.1 µM [inhibitor, single point]
3 | CCc1nc2ccc(C(=O)N3CCN(c4cccc(Cl)c4)CC3)cc2nc1CC | inconclusive: 25.9 µM [inhibitor, single point]
4 | O=S(=O)(c1ccc(Cl)cc1)N1CCN(C(=S)Nc2ccccc2F)CC1 | inconclusive: 18.3 µM [inhibitor, partial curve, poor fit]
5 | O=C(c1cc(Cl)ccc1Cl)N1CCc2ccccc21 | inconclusive: 1.83 µM [activator, partial curve, poor fit]
6 | OCCC1CN(CCCc2ccccc2)CCN1CCc1ccccc1 (configuration not stated) | inconclusive: 0.794 µM [inhibitor, full curve, poor fit]
7 | Cc1ccc(/C=N/N2CCN(c3ccncc3S(=O)(=O)N3CCCCC3)CC2)cc1 | inactive
8 | COCCn1c(SCC(=O)Nc2cc(C)on2)nc2cc(Cl)ccc2c1=O | inactive
9 | Cn1ncc([N+](=O)[O-])c1C(=O)Nc1ccc(-c2ccccc2)cc1 | inconclusive: 29.1 µM [activator, single point]
10 | Cc1ccc(Cn2nc(C)c(C(=O)NCC(c3ccc(F)cc3)N3CCOCC3)c2Cl)cc1 (configuration not stated) | inconclusive: 29.1 µM [inhibitor, single point]
11 | COc1ccc(NC(=O)CN(C)C(=O)c2ccccc2Sc2ncnc3sc(C)c(C)c23)cc1 | active: 16.4 µM
12 | O=C(NC(CO)C(=O)OCc1ccccc1)OCc1ccccc1 (configuration not stated) | inactive
13 | CCn1ccnc1CN(C)C(=O)c1cc(COc2ccccc2SC)on1 | inconclusive: 8.2 µM [activator, partial curve]
14 | O=C(CC1NC(=S)NC1=O)c1ccc(Cl)cc1 (configuration not stated) | inactive
15 | Cc1ccc(-c2nc(S(=O)(=O)c3ccc(C)cc3)c(N(C)C)o2)cc1 | inactive
16 | O=C(Nc1ccc2ccccc2c1)N1CCCN(CCOc2ccccc2)CC1 | inconclusive: 29.1 µM [inhibitor, single point]
17 | COc1cc(-c2n[nH]c(=S)n2-c2ccc(Br)cc2)cc(OC)c1OC | inactive
18 | O=C(NCCCn1ccnc1)Nc1cccc(Cl)c1 | inconclusive: 29.1 µM [activator, single point]
19 | Cc1ccccc1-c1nc(-c2ccccn2)no1 | inconclusive: 0.461 µM [activator, full curve]
20 | CCn1c(/C=C/c2c(C)[nH]c3ccccc23)nc2ccccc2c1=O | inactive
21 | Cc1ccc(NC(=O)CSCc2cc(=O)n3cc(C)sc3n2)c(C)c1 | inactive
22 | O=C(NCC(O)c1ccccc1)c1cccs1 (configuration not stated) | inconclusive: 18.3 µM [activator, partial curve]
23 | S=C(NCc1ccccn1)Nc1ccc(Cl)cc1 | inactive
24 | CCOC(=O)CC(=O)CSc1nc2ccc(C)cc2cc1C#N | inconclusive: 10.3 µM [activator, partial curve]

Row | Structure (SMILES) | Potency
25 | O=C(CN1C(=O)NC2(CCCCC2)C1=O)N1CCN(S(=O)(=O)c2ccc(F)c(F)c2F)CC1 | inactive
26 | CCOC(=O)c1cnc2ccc(OCC)cc2c1NCc1ccccc1OC | inconclusive: 23.1 µM [inhibitor, partial curve]
27 | CCN(c1ccccc1)S(=O)(=O)c1ccc(NC(=O)c2nc(S(C)(=O)=O)ncc2Cl)cc1 | inconclusive: 20.6 µM [inhibitor, single point]
28 | O=C(Nc1nc2ccccc2[nH]1)c1ccc(F)cc1 | inconclusive: 2.06 µM [activator, partial curve]
29 | CCOC(=O)c1cnc(-n2nc(C)cc2C)nc1N(CC)CC | inconclusive: 2.31 µM [inhibitor, full curve, poor fit]
30 | C=CC[C@H](CC(=O)NCCO)C(=O)N[C@H](COC(=O)[C@@H](CC=C)CC(=O)OC(C)(C)C)Cc1ccccc1 | inactive
31 | O=S(=O)(c1cccs1)N1CN(CC2CCCO2)c2nc3ccccc3nc21 (configuration not stated) | inconclusive: 16.4 µM [activator, partial curve, poor fit]
32 | COc1cc(NC(=O)c2ccno2)cc(C(=O)Nc2cccc(C(F)(F)F)c2)c1 | inconclusive: 32.6 µM [inhibitor, single point]
33 | COc1ccc(C(=O)CCc2ccccc2)cc1 | inconclusive: 20.6 µM [activator, partial curve]
34 | O=c1cc(CSc2nnc(COc3ccc(Cl)cc3)o2)c2ccccc2[nH]1 | inconclusive: 29.1 µM [inhibitor, single point]
35 | CSCc1ccc(C(=O)NCc2ccc(C)cc2)cc1 | inconclusive: 32.6 µM [activator, partial curve, poor fit]
36 | CCC(=O)Nc1ccc(/C(C)=N/NC(=O)c2c(-c3ccccc3Cl)noc2C)cc1 | inactive
37 | Cc1c(/C=N/Nc2nc3ccccc3[nH]2)c2ccccc2n1C | inactive
38 | O=C(NCC1CCCO1)c1ccc(NC(=O)c2ccc([N+](=O)[O-])cc2)cc1 (configuration not stated) | inconclusive: 7.3 µM [inhibitor, partial curve]
39 | CC(C)N1CCc2c(sc(NC(=O)c3ccc4ccccc4c3)c2C(N)=O)C1 | inactive
40 | O=C(CSc1nc2scc(-c3ccco3)c2c(=O)n1-c1ccccc1)NCC1CCCO1 (configuration not stated) | inconclusive: 29.1 µM [inhibitor, single point]
41 | CC(C)c1ccc(N(CC(=O)NCc2ccco2)C(=O)CCC(=O)Nc2nccs2)cc1 | inactive
42 | O=C(Nc1ccccc1C(F)(F)F)N1CCCCCC1 | inconclusive: 25.9 µM [activator, single point]
43 | O=S(=O)(NCCNc1nccc(C(F)(F)F)n1)c1ccccc1 | inconclusive: 20.6 µM [inhibitor, partial curve, poor fit]
44 | CN(C(=O)COC(=O)c1cc(=O)[nH]c2ccccc12)C1CCCCC1 | inconclusive: 20.6 µM [activator, partial curve]
45 | Cc1ccc(-c2ccc(C3C(C#N)=C(N)Oc4n[nH]c(C)c43)o2)cc1 (configuration not stated) | inconclusive: 29.1 µM [activator, single point]
46 | O=C(c1ccc(=O)[nH]c1)N1CCN(S(=O)(=O)c2ccc3ccccc3c2)CC1 | inactive
47 | O=C(c1noc2c1CCCC2)N1CCc2ccccc2C1 | inconclusive: 16.4 µM [activator, partial curve]
48 | CC(C)C(NC(=O)OCc1ccccc1)C(=O)OCC(=O)N1CCCCC1 (configuration not stated) | inconclusive: 14.6 µM [activator, partial curve]

Row | Structure (SMILES) | Potency
49 | CN(CCC#N)C(=O)COC(=O)c1ccc2c(c1)C(=O)N(C1CCCCC1)C2=O | inconclusive: 0.058 µM [activator, full curve]
50 | O=c1oc2c(CN3CCCCCC3)c(O)ccc2cc1-c1nc2ccccc2[nH]1 | inconclusive: 8.2 µM [activator, partial curve]
51 | O=C(Nc1c(-c2ccccc2)nc2ccccn12)c1ccco1 | inactive
52 | COCC(=O)Nc1nnc(COc2ccc(Cl)cc2)s1 | inconclusive: 18.4 µM [activator, partial curve]
53 | Cc1ccc(NC(=O)CN2CCN(C(=O)C3CCCO3)CC2)c(C)c1 (configuration not stated) | inactive
54 | COc1cccc(CNc2cc(CSc3ccc(Cl)cc3)nc(C)n2)c1 | inconclusive: 16.4 µM [inhibitor, partial curve]
55 | CC1CCN(C(=O)Cn2cc(C(F)(F)F)ccc2=O)c2ccccc2S1 (configuration not stated) | inactive
56 | Clc1cccc(CN2CCC(Cc3ccccc3)CC2)c1 | inconclusive: 23.1 µM [inhibitor, single point]
57 | CCc1ccc(/C=C2/SC(=S)N(CCC(=O)Nc3ccc(C(=O)O)cc3)C2=O)cc1 | inactive
58 | O=S(=O)(c1ccc(SCCOc2ccc(Cl)cc2)nc1)N1CCCC1 | inconclusive: 29.1 µM [activator, single point]
59 | CC(C)N(C(=S)Nc1cccc(S(=O)(=O)N(C)C)c1)c1ccccc1 | inactive
60 | Cc1ccc(-c2nc(NC(=O)CSc3nnc4scc(-c5ccccc5)n34)ns2)cc1 | active: 11.6 µM
61 | C[C@H](NC(=O)OC(C)(C)C)C(=O)N/N=C/C1=Cc2ccccc2OC1 | inconclusive: 6.51 µM [inhibitor, single point]
62 | NS(=O)(=O)c1ccc(N/C=C\C(=O)c2ccc3ccccc3c2)cc1 | inactive
63 | CCOC(=O)C1=c2/c(=C/c3ccncc3)c(N)c(C(=O)OC)n2C(=O)C(c2ccncc2)S1 (configuration not stated) | inconclusive: 4.11 µM [inhibitor, full curve]
64 | CN(CCCC(=O)Nc1ccc(Br)cc1F)S(=O)(=O)c1ccccc1 | inconclusive: 18.3 µM [inhibitor, single point]
65 | Cn1cccc1C(=O)OCC(=O)Nc1ccc2c(c1)CCC2 | inconclusive: 20.6 µM [activator, partial curve]
66 | COC(=O)c1ccc(NC(=O)c2ccc3nc(C)sc3c2)cc1 | inconclusive: 20.6 µM [activator, single point]
67 | Cc1ccc(-c2cc(N)n(-c3ccccc3)n2)cc1 | inconclusive: 9.2 µM [activator, partial curve]
68 | Cc1ccc(CNC(=O)c2cc(-c3ccccc3)n(Cc3cc(C)no3)n2)cc1 | inactive
69 | C=CCOc1ccc(C2=NO[C@@H]3[C@@H]4C[C@@H]([C@H]5C(=O)N(C)C(=O)[C@@H]45)[C@H]23)cc1 | inconclusive: 29.1 µM [inhibitor, single point]
70 | c1cncc(CNCc2ccco2)c1 | inactive
71 | Cc1cc(C)cc(OCc2nnc(N)s2)c1 | inactive
72 | C[C@H](NC(=O)c1nc[nH]c1C(=O)N1CCc2ccccc2C1)C(=O)OC(C)(C)C | inconclusive: 6.51 µM [inhibitor, partial curve]

15 compounds from above, arranged by molar mass, low to high.
Row | Structure (SMILES) | Potency
70 | c1cncc(CNCc2ccco2)c1 | inactive
71 | Cc1cc(C)cc(OCc2nnc(N)s2)c1 | inactive
67 | Cc1ccc(-c2cc(N)n(-c3ccccc3)n2)cc1 | inconclusive: 9.2 µM [activator, partial curve]
65 | Cn1cccc1C(=O)OCC(=O)Nc1ccc2c(c1)CCC2 | inconclusive: 20.6 µM [activator, partial curve]
66 | COC(=O)c1ccc(NC(=O)c2ccc3nc(C)sc3c2)cc1 | inconclusive: 20.6 µM [activator, single point]
61 | C[C@H](NC(=O)OC(C)(C)C)C(=O)N/N=C/C1=Cc2ccccc2OC1 | inconclusive: 6.51 µM [inhibitor, single point]
69 | C=CCOc1ccc(C2=NO[C@@H]3[C@@H]4C[C@@H]([C@H]5C(=O)N(C)C(=O)[C@@H]45)[C@H]23)cc1 | inconclusive: 29.1 µM [inhibitor, single point]
59 | CC(C)N(C(=S)Nc1cccc(S(=O)(=O)N(C)C)c1)c1ccccc1 | inactive
55 | CC1CCN(C(=O)Cn2cc(C(F)(F)F)ccc2=O)c2ccccc2S1 (configuration not stated) | inactive
54 | COc1cccc(CNc2cc(CSc3ccc(Cl)cc3)nc(C)n2)c1 | inconclusive: 16.4 µM [inhibitor, partial curve]
50 | O=c1oc2c(CN3CCCCCC3)c(O)ccc2cc1-c1nc2ccccc2[nH]1 | inconclusive: 8.2 µM [activator, partial curve]
49 | CN(CCC#N)C(=O)COC(=O)c1ccc2c(c1)C(=O)N(C1CCCCC1)C2=O | inconclusive: 0.058 µM [activator, full curve]
72 | C[C@H](NC(=O)c1nc[nH]c1C(=O)N1CCc2ccccc2C1)C(=O)OC(C)(C)C | inconclusive: 6.51 µM [inhibitor, partial curve]
58 | O=S(=O)(c1ccc(SCCOc2ccc(Cl)cc2)nc1)N1CCCC1 | inconclusive: 29.1 µM [activator, single point]
63 | CCOC(=O)C1=c2/c(=C/c3ccncc3)c(N)c(C(=O)OC)n2C(=O)C(c2ccncc2)S1 (configuration not stated) | inconclusive: 4.11 µM [inhibitor, full curve]
